This note sets out measurements from publication PMC12172478.

Amino acid sequences for entries named in this document (tags omitted).
UniProt O56129: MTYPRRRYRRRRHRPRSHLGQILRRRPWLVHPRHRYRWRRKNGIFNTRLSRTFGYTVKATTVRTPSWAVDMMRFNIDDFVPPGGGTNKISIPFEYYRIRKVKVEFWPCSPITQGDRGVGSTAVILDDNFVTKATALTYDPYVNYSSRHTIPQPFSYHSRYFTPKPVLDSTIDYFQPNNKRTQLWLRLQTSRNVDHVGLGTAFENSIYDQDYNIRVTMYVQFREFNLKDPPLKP

No constants are given. Whether binding was seen depends on the method and setting. Binding seen in cells or lysates may run through a third protein. A result given as binding can be weak or reduced; the word gives no strength.

The target of this test is FLAG-DDX10 (porcine (cDNA from PK-15 cells)) (UniProt F1SV16). Put plainly: co-IP; HEK293T cells co-transfected with the two plasmids for 48 h; NP-40 lysis buffer; immunoprecipitated with anti-FLAG beads, anti-GFP mAbs or glutathione agarose beads; washed three times; Western blot.

On to “GFP-PCV2-Cap (from UniProt O56129 1-233)”, for which the binding result is given as “binds”.
